According to ChEMBL document CHEMBL5674883, “The Heterochromatin Landscape in Migrating Cells and the Importance of H3K27me3 for Associated Transcriptome Alterations” (Cells, 2018):
The source gives many values for each of these; only a part stands here.

Protein sequences, listed by entry. Tags and fused reporters are not part of them.
UniProt Q61188, whole entry: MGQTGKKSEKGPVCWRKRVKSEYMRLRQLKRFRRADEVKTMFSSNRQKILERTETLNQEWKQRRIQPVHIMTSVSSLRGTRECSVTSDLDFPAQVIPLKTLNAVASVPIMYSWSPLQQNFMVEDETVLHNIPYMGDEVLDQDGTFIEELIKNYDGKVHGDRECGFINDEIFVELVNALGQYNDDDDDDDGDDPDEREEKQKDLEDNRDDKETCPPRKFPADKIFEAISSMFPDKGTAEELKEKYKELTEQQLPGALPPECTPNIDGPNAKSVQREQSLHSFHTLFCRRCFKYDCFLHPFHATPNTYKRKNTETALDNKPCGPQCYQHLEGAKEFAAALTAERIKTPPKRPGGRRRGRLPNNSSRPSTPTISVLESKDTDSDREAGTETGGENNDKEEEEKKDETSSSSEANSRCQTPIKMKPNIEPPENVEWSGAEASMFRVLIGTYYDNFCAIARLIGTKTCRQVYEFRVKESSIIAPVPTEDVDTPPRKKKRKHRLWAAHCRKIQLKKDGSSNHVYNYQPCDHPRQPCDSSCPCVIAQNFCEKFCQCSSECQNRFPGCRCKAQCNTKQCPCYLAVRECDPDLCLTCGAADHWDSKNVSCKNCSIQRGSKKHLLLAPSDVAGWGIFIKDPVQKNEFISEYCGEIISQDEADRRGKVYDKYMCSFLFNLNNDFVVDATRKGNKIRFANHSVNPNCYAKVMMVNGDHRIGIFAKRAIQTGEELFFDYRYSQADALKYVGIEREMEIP

Key:
Assay type in all cases: cell-based
[1] = biological target: Histone-lysine N-methyltransferase EZH2 (Mus musculus) (UniProt Q61188); test: Inhibition of EZH2 in mouse B16-F1 migrating cells assessed as fold change in H3K27me3-buffered regulated Eya1-mRNA expression at 3 uM measured by ChIP-seq analysis relative to control cells
[2] = biological target: Histone-lysine N-methyltransferase EZH2 (Mus musculus) (UniProt Q61188); test: Inhibition of EZH2 in mouse B16-F1 migrating cells assessed as fold change in H3K27me3-buffered regulated Zfas1-mRNA expression at 3 uM measured by ChIP-seq analysis relative to control cells
[3] = biological target: Histone-lysine N-methyltransferase EZH2 (Mus musculus) (UniProt Q61188); test: Inhibition of EZH2 in mouse B16-F1 migrating cells assessed as fold change in H3K27me3-independent regulated Mgarp-mRNA expression at 3 uM measured by ChIP-seq analysis relative to control cells
[4] = biological target: Histone-lysine N-methyltransferase EZH2 (Mus musculus) (UniProt Q61188); test: Inhibition of EZH2 in mouse B16-F1 migrating cells assessed as fold change in H3K27me3-buffered regulated Rras-mRNA expression at 3 uM measured by ChIP-seq analysis relative to control cells
[5] = biological target: Histone-lysine N-methyltransferase EZH2 (Mus musculus) (UniProt Q61188); test: Inhibition of EZH2 in mouse B16-F1 migrating cells assessed as fold change in H3K27me3-buffered regulated Nudt18-mRNA expression at 3 uM measured by ChIP-seq analysis relative to control cells
[6] = biological target: Histone-lysine N-methyltransferase EZH2 (Mus musculus) (UniProt Q61188); test: Inhibition of EZH2 in mouse B16-F1 migrating cells assessed as fold change in H3K27me3-buffered regulated Sox9-mRNA expression at 3 uM measured by ChIP-seq analysis relative to control cells
[7] = biological target: Histone-lysine N-methyltransferase EZH2 (Mus musculus) (UniProt Q61188); test: Inhibition of EZH2 in mouse B16-F1 migrating cells assessed as fold change in H3K27me3-buffered regulated Ccdc125-mRNA expression at 3 uM measured by ChIP-seq analysis relative to control cells
[8] = biological target: Histone-lysine N-methyltransferase EZH2 (Mus musculus) (UniProt Q61188); test: Inhibition of EZH2 in mouse B16-F1 migrating cells assessed as fold change in H3K27me3-buffered regulated Traf4-mRNA expression at 3 uM measured by ChIP-seq analysis relative to control cells
[9] = biological target: Histone-lysine N-methyltransferase EZH2 (Mus musculus) (UniProt Q61188); test: Inhibition of EZH2 in mouse B16-F1 migrating cells assessed as fold change in H3K27me3-independent regulated Srxn1-mRNA expression at 3 uM measured by ChIP-seq analysis relative to control cells
[10] = biological target: Histone-lysine N-methyltransferase EZH2 (Mus musculus) (UniProt Q61188); test: Inhibition of EZH2 in mouse B16-F1 migrating cells assessed as fold change in H3K27me3-buffered regulated Sema7a-mRNA expression at 3 uM measured by ChIP-seq analysis relative to control cells
[11] = biological target: Histone-lysine N-methyltransferase EZH2 (Mus musculus) (UniProt Q61188); test: Inhibition of EZH2 in mouse B16-F1 migrating cells assessed as fold change in H3K27me3-buffered regulated Bard1-mRNA expression at 3 uM measured by ChIP-seq analysis relative to control cells
[12] = biological target: T1, RNA polymerase II (Mus musculus) (UniProt P08775+Q8CFI7+P97760+A0A3Q4L2S8+Q80UW8+P61219+P62488+Q923G2+P60898+O08740+Q63871+P62876); test: Inhibition of RNA polymerase II in mouse B16-F1 migrating cells assessed as fold change in Gadd45gip1-RNA stability at 0.1 mM measured by ChIP-seq analysis relative to control cells
[13] = biological target: T1, RNA polymerase II (Mus musculus); test: Inhibition of RNA polymerase II in mouse B16-F1 migrating cells assessed as fold change in Rpl37a-RNA stability at 0.1 mM measured by ChIP-seq analysis relative to control cells
[14] = biological target: T1, RNA polymerase II (Mus musculus); test: Inhibition of RNA polymerase II in mouse B16-F1 migrating cells assessed as fold change in Yipf3-RNA stability at 0.1 mM measured by ChIP-seq analysis relative to control cells
[15] = biological target: T1, RNA polymerase II (Mus musculus); test: Inhibition of RNA polymerase II in mouse B16-F1 migrating cells assessed as fold change in Mif-RNA stability at 0.1 mM measured by ChIP-seq analysis relative to control cells
[16] = biological target: T1, RNA polymerase II (Mus musculus); test: Inhibition of RNA polymerase II in mouse B16-F1 migrating cells assessed as fold change in Setd5-RNA stability at 0.1 mM measured by ChIP-seq analysis relative to control cells
[17] = biological target: T1, RNA polymerase II (Mus musculus); test: Inhibition of RNA polymerase II in mouse B16-F1 migrating cells assessed as fold change in Ndufa11-RNA stability at 0.1 mM measured by ChIP-seq analysis relative to control cells
[18] = biological target: T1, RNA polymerase II (Mus musculus); test: Inhibition of RNA polymerase II in mouse B16-F1 migrating cells assessed as fold change in Krit1-RNA stability at 0.1 mM measured by ChIP-seq analysis relative to control cells
[19] = biological target: T1, RNA polymerase II (Mus musculus); test: Inhibition of RNA polymerase II in mouse B16-F1 migrating cells assessed as fold change in Rad17-RNA stability at 0.1 mM measured by ChIP-seq analysis relative to control cells
[20] = biological target: T1, RNA polymerase II (Mus musculus); test: Inhibition of RNA polymerase II in mouse B16-F1 migrating cells assessed as fold change in Hmmr-RNA stability at 0.1 mM measured by ChIP-seq analysis relative to control cells
[21] = biological target: T1, RNA polymerase II (Mus musculus); test: Inhibition of RNA polymerase II in mouse B16-F1 migrating cells assessed as fold change in Mut-RNA stability at 0.1 mM measured by ChIP-seq analysis relative to control cells
[22] = biological target: T1, RNA polymerase II (Mus musculus); test: Inhibition of RNA polymerase II in mouse B16-F1 migrating cells assessed as fold change in Eif1a-RNA stability at 0.1 mM measured by ChIP-seq analysis relative to control cells
[23] = biological target: T1, RNA polymerase II (Mus musculus); test: Inhibition of RNA polymerase II in mouse B16-F1 migrating cells assessed as fold change in Morn2-RNA stability at 0.1 mM measured by ChIP-seq analysis relative to control cells
[24] = biological target: T1, RNA polymerase II (Mus musculus); test: Inhibition of RNA polymerase II in mouse B16-F1 migrating cells assessed as fold change in Cox6c-RNA stability at 0.1 mM measured by ChIP-seq analysis relative to control cells
[25] = biological target: T1, RNA polymerase II (Mus musculus); test: Inhibition of RNA polymerase II in mouse B16-F1 migrating cells assessed as fold change in Zbtb6-RNA stability at 0.1 mM measured by ChIP-seq analysis relative to control cells
[26] = biological target: T1, RNA polymerase II (Mus musculus); test: Inhibition of RNA polymerase II in mouse B16-F1 migrating cells assessed as fold change in Mbtps2-RNA stability at 0.1 mM measured by ChIP-seq analysis relative to control cells
[27] = biological target: T1, RNA polymerase II (Mus musculus); test: Inhibition of RNA polymerase II in mouse B16-F1 migrating cells assessed as fold change in Surf6-RNA stability at 0.1 mM measured by ChIP-seq analysis relative to control cells
[28] = biological target: T1, RNA polymerase II (Mus musculus); test: Inhibition of RNA polymerase II in mouse B16-F1 migrating cells assessed as fold change in Pus10-RNA stability at 0.1 mM measured by ChIP-seq analysis relative to control cells
[29] = biological target: T1, RNA polymerase II (Mus musculus); test: Inhibition of RNA polymerase II in mouse B16-F1 migrating cells assessed as fold change in Atp13a2-RNA stability at 0.1 mM measured by ChIP-seq analysis relative to control cells
[30] = biological target: T1, RNA polymerase II (Mus musculus); test: Inhibition of RNA polymerase II in mouse B16-F1 migrating cells assessed as fold change in Mat2a-RNA stability at 0.1 mM measured by ChIP-seq analysis relative to control cells

With `CCCc1cc(C)[nH]c(=O)c1CNC(=O)c1cc(-c2ccnc(N3CCN(C)CC3)c2)cc2c1cnn2C(C)C` the log2FC [1] was -0.4, the log2FC [2] was -0.62 and the log2FC [3] was 0.77. For the same compound, the log2FC [4] was 0.45, the log2FC [5] was 0.42 and the log2FC [6] was 0.48. It also gave a log2FC [7] of -0.74, a log2FC [8] of -0.46 and a log2FC [9] of 0.91. For the same compound, the log2FC [10] was -1.04 and the log2FC [11] was -0.44.
Compound `OC[C@H]1O[C@@H](n2cnc3cc(Cl)c(Cl)cc32)[C@H](O)[C@@H]1O` has a log2FC [12] of 0.54, a log2FC [13] of 0.46 and a log2FC [14] of 0.47. The log2FC [15] was 0.56, the log2FC [16] was -0.44 and the log2FC [17] was 0.52. For the same compound, the log2FC [18] was -0.76, the log2FC [19] was -0.47 and the log2FC [20] was -1. The log2FC [21] was -0.59, the log2FC [22] was -0.44 and the log2FC [23] was 0.82. For the same compound, the log2FC [24] was -0.65, the log2FC [25] was -0.83 and the log2FC [26] was -0.62. It also gave a log2FC [27] of -0.49, a log2FC [28] of -0.54 and a log2FC [29] of 0.4. The log2FC [30] was -0.49.
